{
  "source": "paper PMC5606850",
  "about": "“Acidic C-terminal domains autoregulate the RNA chaperone Hfq” (eLife, 2017)",
  "test_system": "D16-FAM·R16",
  "assay": "anisotropy time-course of D16-FAM·R16 binding, annealing and release",
  "format": "biochemical",
  "settings": "mixture of ternary complex, D16-FAM·R16 and Hfq·D16-FAM; mean of at least two independent experiments",
  "method": "Figure 4. Shortening the CTD increases auto-inhibition by acidic residues. (A) Observed annealing rate constants for 100 nM target RNA and 50 nM molecular beacon with 0–200 nM Hfq hexamer at 30°C, measured by stopped-flow fluorescence. Black, Hfq102; red, Hfq-sCTD; cyan, Hfq65. (B) Fluorescence anisotropy assay for RNA binding and release. In stopped-flow FRET experiments, the dsRNA is released after pairing with its complementary strand ([Panja et al., 2013]; [Santiago-Frangos et al., 2016]). […] Remaining RNA was displaced from Hfq by excess ssDNA (400 nM DNA2). The averages and standard deviations for three trials are plotted for each Hfq variant. […] (D) Annealing of 5 nM ^32P-ChiX sRNA with 30 nM chiP mRNA without Hfq, or with Hfq65, Hfq102 or Hfq-sCTD, as indicated above each lane. Samples were loaded on a native polyacrylamide gel 60 min or 20 s after the components were mixed. […] (E) Fractions of free ChiX (black), ChiX·chiP dsRNA (light grey), ChiX·Hfq·chiP ternary complex (hatched) and ChiX·Hfq binary complex (dark grey) after 4 min of annealing, as analyzed by EMSA (Figure 4—figure supplement 2). […] Annealing of 100 nM Target RNA to 50 nM beacon RNA by Hfq variants was measured by stopped flow fluorescence at 30°C in 1 × TNK buffer. […] The change in fluorescence emission intensity was normalized to the maximum fluorescence within an experiment. […]",
  "data": [
    {"substance": "Hfq102: full-length E. coli Hfq", "values": [
      {"measurement": "rAP, anisotropy at the end of the 'annealing and release' phase", "result": 0.0732}
    ]},
    {"substance": "Hfq65: truncated E. coli Hfq variant lacking the CTD", "values": [
      {"measurement": "rAP, anisotropy at the end of the 'annealing and release' phase", "result": 0.1099}
    ]}
  ]
}
